{"source": "PubChem BioAssay AID686938 (Drosophila RNAi Screening Center, 2013)", "test": "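Fly genes required for calcium entry once internal stores are emptied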 (primary screen)", "system": "Drosophila S2R+ cells", "reagent": "long dsRNA against Drosophila genes, about 0.25 µg dsRNA per well, roughly 10,000 cells", "time to read-out": "5 days of knock-down before the calcium assay", "challenge": "thapsigargin (SERCA pump blocker) to empty calcium stores; entry signal taken 4 min after adding it", "measured": "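Duplicate raw fluo-4 intensities per well from a plate reader, at rest and four minutes after thapsigargin emptied calcium stores; entry-to-rest ratio filled for only some wells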", "reading the numbers": "calcium entry signal: higher = stronger calcium signal after store depletion; entry to resting ratio: higher = more calcium entry relative to resting level; resting calcium signal: higher = higher resting calcium signal", "units": "calcium entry signal in fluorescence units; resting calcium signal in fluorescence units", "hit rule": "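Called when the plate z-score of the entry-to-rest ratio, mean of duplicates, falls below −3; wells with low overall dye signal (Fmax z below −2) or more than five off-targets excluded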", "meaning of the calls": "active = strongly reduced calcium entry; inactive = no strong reduction", "note": "The deposit covers about 23,000 reagents; below is an unselected part of those that have a named target and a result. In the full data, 75 (0.33%) got an active call. 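Raw plate signals without normalisation; calls rest on plate z-scores that were not deposited; ratio present for only 364 wells.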 Not given: the dose of the treatment."}
{"target": "CG32271", "dsRNA": "DRSC08198", "calcium entry signal, replicate 1": 3.11e7, "calcium entry signal, replicate 2": 3.08e7, "resting calcium signal, replicate 1": 1.78e7, "resting calcium signal, replicate 2": 1.51e7, "outcome": "inactive"}
{"target": "CG15708", "dsRNA": "DRSC06579", "calcium entry signal, replicate 1": 4.71e7, "calcium entry signal, replicate 2": 5.46e7, "resting calcium signal, replicate 1": 2.09e7, "resting calcium signal, replicate 2": 2.53e7, "outcome": "inactive"}
{"target": "CG11892", "dsRNA": "DRSC14428", "calcium entry signal, replicate 1": 3.36e7, "calcium entry signal, replicate 2": 3.17e7, "resting calcium signal, replicate 1": 1.54e7, "resting calcium signal, replicate 2": 1.44e7, "outcome": "inactive"}
{"target": "KrT95D (Krueppel target at 95D)", "dsRNA": "DRSC16725", "calcium entry signal, replicate 1": 2.14e7, "calcium entry signal, replicate 2": 2.20e7, "resting calcium signal, replicate 1": 1.00e7, "resting calcium signal, replicate 2": 1.10e7, "outcome": "inactive"}
{"target": "ND-B8 (NADH dehydrogenase (ubiquinone) B8 subunit)", "dsRNA": "DRSC00449", "calcium entry signal, replicate 1": 2.19e7, "calcium entry signal, replicate 2": 2.51e7, "resting calcium signal, replicate 1": 1.11e7, "resting calcium signal, replicate 2": 1.20e7, "outcome": "inactive"}
{"target": "Gp93 (Glycoprotein 93)", "dsRNA": "DRSC15827", "calcium entry signal, replicate 1": 3.41e7, "calcium entry signal, replicate 2": 4.28e7, "resting calcium signal, replicate 1": 1.74e7, "resting calcium signal, replicate 2": 2.15e7, "outcome": "inactive"}
{"target": "eca (eclair)", "dsRNA": "DRSC22290", "calcium entry signal, replicate 1": 2.95e7, "calcium entry signal, replicate 2": 4.14e7, "resting calcium signal, replicate 1": 1.57e7, "resting calcium signal, replicate 2": 2.24e7, "outcome": "inactive"}
{"target": "CG7130", "dsRNA": "DRSC11797", "calcium entry signal, replicate 1": 2.95e7, "calcium entry signal, replicate 2": 6.08e7, "resting calcium signal, replicate 1": 1.41e7, "resting calcium signal, replicate 2": 2.62e7, "outcome": "inactive"}
{"target": "Rtel1 (Regulator of telomere elongation helicase 1)", "dsRNA": "DRSC18343", "calcium entry signal, replicate 1": 2.88e7, "calcium entry signal, replicate 2": 4.73e7, "resting calcium signal, replicate 1": 1.48e7, "resting calcium signal, replicate 2": 2.10e7, "outcome": "inactive"}

Records listed so far whose target name begins with C or c (4):
{"target": "CG32271", "dsRNA": "DRSC08198", "calcium entry signal, replicate 1": 3.11e7, "calcium entry signal, replicate 2": 3.08e7, "resting calcium signal, replicate 1": 1.78e7, "resting calcium signal, replicate 2": 1.51e7, "outcome": "inactive"}
{"target": "CG15708", "dsRNA": "DRSC06579", "calcium entry signal, replicate 1": 4.71e7, "calcium entry signal, replicate 2": 5.46e7, "resting calcium signal, replicate 1": 2.09e7, "resting calcium signal, replicate 2": 2.53e7, "outcome": "inactive"}
{"target": "CG11892", "dsRNA": "DRSC14428", "calcium entry signal, replicate 1": 3.36e7, "calcium entry signal, replicate 2": 3.17e7, "resting calcium signal, replicate 1": 1.54e7, "resting calcium signal, replicate 2": 1.44e7, "outcome": "inactive"}
{"target": "CG7130", "dsRNA": "DRSC11797", "calcium entry signal, replicate 1": 2.95e7, "calcium entry signal, replicate 2": 6.08e7, "resting calcium signal, replicate 1": 1.41e7, "resting calcium signal, replicate 2": 2.62e7, "outcome": "inactive"}

More records follow:
{"target": "CG5543", "dsRNA": "DRSC04511", "calcium entry signal, replicate 1": 2.34e7, "resting calcium signal, replicate 1": 1.23e7, "outcome": "inactive"}
{"target": "Mpc1", "dsRNA": "DRSC14770", "calcium entry signal, replicate 1": 2.15e7, "calcium entry signal, replicate 2": 2.29e7, "resting calcium signal, replicate 1": 9.90e6, "resting calcium signal, replicate 2": 9.40e6, "outcome": "inactive"}
{"target": "Gapvd1 (GTPase activating protein and VPS9 domains 1)", "dsRNA": "DRSC19752", "calcium entry signal, replicate 1": 3.38e7, "calcium entry signal, replicate 2": 3.32e7, "resting calcium signal, replicate 1": 1.64e7, "resting calcium signal, replicate 2": 1.46e7, "outcome": "inactive"}
{"target": "CG7031", "dsRNA": "DRSC16178", "calcium entry signal, replicate 1": 3.41e7, "calcium entry signal, replicate 2": 3.29e7, "resting calcium signal, replicate 1": 1.94e7, "resting calcium signal, replicate 2": 1.69e7, "outcome": "inactive"}
{"target": "CG7031", "dsRNA": "DRSC23028", "calcium entry signal, replicate 1": 3.09e7, "calcium entry signal, replicate 2": 3.75e7, "resting calcium signal, replicate 1": 1.40e7, "resting calcium signal, replicate 2": 1.47e7, "outcome": "inactive"}
{"target": "CG12877", "dsRNA": "DRSC14565", "calcium entry signal, replicate 1": 2.62e7, "calcium entry signal, replicate 2": 3.14e7, "resting calcium signal, replicate 1": 1.28e7, "resting calcium signal, replicate 2": 1.35e7, "outcome": "inactive"}
{"target": "GILT3 (Gamma-interferon-inducible lysosomal thiol reductase 3)", "dsRNA": "DRSC14672", "calcium entry signal, replicate 1": 3.55e7, "calcium entry signal, replicate 2": 3.44e7, "resting calcium signal, replicate 1": 1.73e7, "resting calcium signal, replicate 2": 1.44e7, "outcome": "inactive"}
{"target": "yellow-h", "dsRNA": "DRSC17141", "calcium entry signal, replicate 1": 3.74e7, "calcium entry signal, replicate 2": 5.25e7, "entry to resting ratio": 2.1, "resting calcium signal, replicate 1": 1.77e7, "resting calcium signal, replicate 2": 2.02e7, "outcome": "inactive"}
{"target": "CG8675", "dsRNA": "DRSC20117", "calcium entry signal, replicate 1": 2.67e7, "calcium entry signal, replicate 2": 3.35e7, "resting calcium signal, replicate 1": 1.35e7, "resting calcium signal, replicate 2": 1.50e7, "outcome": "inactive"}
{"target": "Tsp47F (Tetraspanin 47F)", "dsRNA": "DRSC07325", "calcium entry signal, replicate 1": 2.34e7, "calcium entry signal, replicate 2": 2.83e7, "resting calcium signal, replicate 1": 1.35e7, "resting calcium signal, replicate 2": 1.60e7, "outcome": "inactive"}
{"target": "faf (fat facets)", "dsRNA": "DRSC16942", "calcium entry signal, replicate 1": 5.03e7, "calcium entry signal, replicate 2": 4.78e7, "entry to resting ratio": 2.2, "resting calcium signal, replicate 1": 2.26e7, "resting calcium signal, replicate 2": 2.06e7, "outcome": "inactive"}
{"target": "hebe", "dsRNA": "DRSC05192", "calcium entry signal, replicate 1": 2.85e7, "calcium entry signal, replicate 2": 6.83e7, "resting calcium signal, replicate 1": 1.47e7, "resting calcium signal, replicate 2": 2.90e7, "outcome": "inactive"}
{"target": "hebe", "dsRNA": "DRSC06605", "calcium entry signal, replicate 1": 4.54e7, "calcium entry signal, replicate 2": 3.70e7, "resting calcium signal, replicate 1": 2.02e7, "resting calcium signal, replicate 2": 1.72e7, "outcome": "inactive"}
{"target": "hebe", "dsRNA": "DRSC21614", "calcium entry signal, replicate 1": 2.88e7, "calcium entry signal, replicate 2": 4.08e7, "resting calcium signal, replicate 1": 1.39e7, "resting calcium signal, replicate 2": 1.69e7, "outcome": "inactive"}
